# Reference: article PMC2483295
# Sequences of proteins named here, by UniProt entry; tags and fusion partners are left off. A change or cut given only in a name is not applied to a line headed by its entry.
# UniProt Q8S4Q6: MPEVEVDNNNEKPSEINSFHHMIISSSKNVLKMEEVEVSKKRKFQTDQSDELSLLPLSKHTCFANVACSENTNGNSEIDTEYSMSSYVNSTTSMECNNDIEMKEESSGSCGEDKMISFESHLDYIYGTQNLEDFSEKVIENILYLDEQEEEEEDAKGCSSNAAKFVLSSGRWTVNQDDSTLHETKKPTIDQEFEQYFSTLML
# Key:
# phyA-BD (Arabidopsis) [1] = target: T1, phyA-BD (Arabidopsis) (UniProt P14712); experiment: two-hybrid; yeast AH109, growth on L-W-H- plates with 1 mM 3-aminotriazole and 10 µM PCB, 3 d in 1 µmol m^-2 s^-1 red light (Pfr) or 13 µmol m^-2 s^-1 far-red light (Pr)
# T1 sequence: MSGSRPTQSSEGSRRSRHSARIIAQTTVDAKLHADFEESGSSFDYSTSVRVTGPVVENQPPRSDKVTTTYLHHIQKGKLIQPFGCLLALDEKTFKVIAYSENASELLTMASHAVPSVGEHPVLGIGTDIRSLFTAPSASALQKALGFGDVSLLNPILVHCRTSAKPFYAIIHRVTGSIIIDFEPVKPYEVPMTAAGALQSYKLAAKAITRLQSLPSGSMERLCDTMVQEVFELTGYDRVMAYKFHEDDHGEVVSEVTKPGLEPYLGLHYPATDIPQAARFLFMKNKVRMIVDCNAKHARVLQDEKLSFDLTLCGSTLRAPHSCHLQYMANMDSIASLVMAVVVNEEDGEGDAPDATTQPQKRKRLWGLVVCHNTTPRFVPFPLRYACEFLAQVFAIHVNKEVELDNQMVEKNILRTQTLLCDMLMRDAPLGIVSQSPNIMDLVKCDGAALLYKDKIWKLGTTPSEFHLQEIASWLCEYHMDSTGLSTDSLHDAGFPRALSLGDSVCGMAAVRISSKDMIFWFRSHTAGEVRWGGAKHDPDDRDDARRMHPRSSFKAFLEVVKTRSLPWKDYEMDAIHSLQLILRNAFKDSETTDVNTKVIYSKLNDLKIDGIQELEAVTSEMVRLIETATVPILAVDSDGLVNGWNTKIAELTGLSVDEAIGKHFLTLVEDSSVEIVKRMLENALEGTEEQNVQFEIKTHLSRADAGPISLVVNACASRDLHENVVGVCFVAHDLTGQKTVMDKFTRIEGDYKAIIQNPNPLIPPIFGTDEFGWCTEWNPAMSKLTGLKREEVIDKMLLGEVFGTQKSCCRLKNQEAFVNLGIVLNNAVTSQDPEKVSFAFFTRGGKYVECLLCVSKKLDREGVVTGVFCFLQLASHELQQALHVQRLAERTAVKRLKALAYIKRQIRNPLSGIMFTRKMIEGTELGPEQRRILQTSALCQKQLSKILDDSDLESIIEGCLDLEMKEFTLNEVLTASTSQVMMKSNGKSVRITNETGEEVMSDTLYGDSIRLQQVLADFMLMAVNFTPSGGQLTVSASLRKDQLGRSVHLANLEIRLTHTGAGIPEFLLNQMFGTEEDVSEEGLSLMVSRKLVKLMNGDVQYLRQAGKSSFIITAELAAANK
# phyA-BD (Arabidopsis) [2] = target: T1, phyA-BD (Arabidopsis); experiment: two-hybrid; yeast Y187, β-galactosidase activity (Miller units); cultures with 10 µM PCB, 5 min red light pulse (12 µmol m^-2 s^-1), then 240 min dark; 5 min far-red pulse given 0, 60, 120 or 240 min after the red pulse
Substance,binding (phyA-BD (Arabidopsis) [1]),binding (phyA-BD (Arabidopsis) [2])
FHY1 ΔNLS (yeast two-hybrid fusion) (from UniProt Q8S4Q6),binds,–
AD-FHL (from UniProt A8MR65-2),–,binds

# No constants are given. Whether binding was seen depends on the method and setting. Binding calls can cover weak binding; strength is not graded here. Tags and fused reporters may be left off the sequences shown.
